The text below walks through data of publication PMC6450972.

The chains behind the UniProt entries cited, without tags or fusion partners.
UniProt O60934: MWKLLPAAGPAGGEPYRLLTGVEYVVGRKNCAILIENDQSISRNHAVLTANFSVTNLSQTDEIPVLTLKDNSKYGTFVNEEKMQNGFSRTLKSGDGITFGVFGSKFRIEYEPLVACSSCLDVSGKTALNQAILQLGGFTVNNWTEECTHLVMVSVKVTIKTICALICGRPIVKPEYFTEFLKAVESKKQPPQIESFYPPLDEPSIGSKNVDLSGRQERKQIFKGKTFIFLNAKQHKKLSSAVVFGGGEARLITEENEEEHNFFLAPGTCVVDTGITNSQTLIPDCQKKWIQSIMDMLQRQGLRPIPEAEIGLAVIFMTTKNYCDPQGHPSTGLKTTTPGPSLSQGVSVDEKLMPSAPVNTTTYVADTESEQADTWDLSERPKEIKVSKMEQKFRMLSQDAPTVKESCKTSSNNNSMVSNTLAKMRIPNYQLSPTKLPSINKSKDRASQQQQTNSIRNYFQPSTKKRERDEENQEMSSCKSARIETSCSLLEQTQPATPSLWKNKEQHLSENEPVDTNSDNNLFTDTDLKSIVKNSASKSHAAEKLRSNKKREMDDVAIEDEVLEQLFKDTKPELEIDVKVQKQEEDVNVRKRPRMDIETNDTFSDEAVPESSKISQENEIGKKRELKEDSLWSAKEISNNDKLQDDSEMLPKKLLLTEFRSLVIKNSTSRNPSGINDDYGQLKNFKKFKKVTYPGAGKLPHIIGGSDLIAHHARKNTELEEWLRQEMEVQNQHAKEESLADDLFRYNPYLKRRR
UniProt Q13535: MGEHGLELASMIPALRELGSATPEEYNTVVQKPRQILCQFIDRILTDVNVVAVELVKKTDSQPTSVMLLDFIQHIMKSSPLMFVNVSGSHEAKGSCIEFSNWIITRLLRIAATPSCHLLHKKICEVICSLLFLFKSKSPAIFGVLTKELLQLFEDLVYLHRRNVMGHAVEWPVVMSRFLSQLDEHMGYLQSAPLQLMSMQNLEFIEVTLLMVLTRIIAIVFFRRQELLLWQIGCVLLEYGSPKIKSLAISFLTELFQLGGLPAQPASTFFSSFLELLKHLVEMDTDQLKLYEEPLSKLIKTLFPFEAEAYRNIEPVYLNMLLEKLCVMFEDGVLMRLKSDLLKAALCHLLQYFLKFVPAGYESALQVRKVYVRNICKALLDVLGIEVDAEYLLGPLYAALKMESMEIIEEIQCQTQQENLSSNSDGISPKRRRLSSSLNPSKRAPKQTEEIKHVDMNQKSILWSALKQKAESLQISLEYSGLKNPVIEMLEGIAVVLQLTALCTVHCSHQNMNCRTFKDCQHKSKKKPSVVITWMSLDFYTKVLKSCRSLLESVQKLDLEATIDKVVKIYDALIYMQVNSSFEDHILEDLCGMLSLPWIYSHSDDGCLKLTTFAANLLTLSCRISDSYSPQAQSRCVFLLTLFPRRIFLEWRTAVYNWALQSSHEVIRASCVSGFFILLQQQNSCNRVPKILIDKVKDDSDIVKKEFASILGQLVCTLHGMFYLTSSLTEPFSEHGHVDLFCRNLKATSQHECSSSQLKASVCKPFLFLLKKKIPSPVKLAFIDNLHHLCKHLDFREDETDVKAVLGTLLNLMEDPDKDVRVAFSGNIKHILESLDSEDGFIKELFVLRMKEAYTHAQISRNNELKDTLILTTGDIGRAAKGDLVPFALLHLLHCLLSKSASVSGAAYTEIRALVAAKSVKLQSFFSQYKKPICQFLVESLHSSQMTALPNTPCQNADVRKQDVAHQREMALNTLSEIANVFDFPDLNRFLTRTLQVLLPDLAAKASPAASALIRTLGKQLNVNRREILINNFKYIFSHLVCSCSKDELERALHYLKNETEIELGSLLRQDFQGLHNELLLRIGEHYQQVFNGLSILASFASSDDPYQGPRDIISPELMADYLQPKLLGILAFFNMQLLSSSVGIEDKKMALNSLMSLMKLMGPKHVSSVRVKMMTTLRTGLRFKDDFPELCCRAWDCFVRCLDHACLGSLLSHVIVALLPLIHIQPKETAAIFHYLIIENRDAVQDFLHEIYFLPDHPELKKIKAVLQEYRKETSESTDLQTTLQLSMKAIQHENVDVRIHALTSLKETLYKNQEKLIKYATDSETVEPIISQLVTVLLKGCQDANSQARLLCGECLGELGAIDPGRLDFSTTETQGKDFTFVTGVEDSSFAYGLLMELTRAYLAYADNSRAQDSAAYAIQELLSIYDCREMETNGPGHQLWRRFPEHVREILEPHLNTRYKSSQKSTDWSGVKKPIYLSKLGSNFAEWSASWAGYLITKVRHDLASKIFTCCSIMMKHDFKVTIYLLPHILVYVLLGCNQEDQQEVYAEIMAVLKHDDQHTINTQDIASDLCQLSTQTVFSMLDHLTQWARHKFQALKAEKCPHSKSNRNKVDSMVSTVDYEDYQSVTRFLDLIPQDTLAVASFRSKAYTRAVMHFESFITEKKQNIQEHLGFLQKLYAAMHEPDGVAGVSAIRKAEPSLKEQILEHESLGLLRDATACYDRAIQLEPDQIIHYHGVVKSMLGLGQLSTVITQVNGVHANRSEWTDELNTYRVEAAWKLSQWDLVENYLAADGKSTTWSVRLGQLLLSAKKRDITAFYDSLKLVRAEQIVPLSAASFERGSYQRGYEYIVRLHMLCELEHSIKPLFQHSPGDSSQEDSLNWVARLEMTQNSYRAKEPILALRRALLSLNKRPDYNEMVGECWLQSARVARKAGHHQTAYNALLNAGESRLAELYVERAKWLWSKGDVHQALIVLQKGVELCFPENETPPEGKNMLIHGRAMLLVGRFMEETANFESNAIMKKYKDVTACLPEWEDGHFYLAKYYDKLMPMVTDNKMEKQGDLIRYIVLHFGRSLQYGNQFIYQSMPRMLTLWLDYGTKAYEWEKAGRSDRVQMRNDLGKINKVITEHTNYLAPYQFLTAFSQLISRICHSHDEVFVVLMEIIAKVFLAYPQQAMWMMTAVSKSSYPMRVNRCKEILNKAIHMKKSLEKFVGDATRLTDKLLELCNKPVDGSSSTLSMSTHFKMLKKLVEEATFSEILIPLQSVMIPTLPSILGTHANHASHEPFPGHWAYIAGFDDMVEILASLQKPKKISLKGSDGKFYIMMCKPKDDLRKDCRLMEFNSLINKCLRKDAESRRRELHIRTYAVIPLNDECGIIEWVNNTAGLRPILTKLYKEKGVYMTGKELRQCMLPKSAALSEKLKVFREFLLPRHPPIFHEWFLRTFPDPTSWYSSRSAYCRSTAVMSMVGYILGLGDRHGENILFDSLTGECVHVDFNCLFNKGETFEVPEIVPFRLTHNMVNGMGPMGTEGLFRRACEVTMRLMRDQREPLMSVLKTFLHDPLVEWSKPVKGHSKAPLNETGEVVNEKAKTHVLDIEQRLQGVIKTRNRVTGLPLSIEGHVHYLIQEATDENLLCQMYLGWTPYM
UniProt Q92878: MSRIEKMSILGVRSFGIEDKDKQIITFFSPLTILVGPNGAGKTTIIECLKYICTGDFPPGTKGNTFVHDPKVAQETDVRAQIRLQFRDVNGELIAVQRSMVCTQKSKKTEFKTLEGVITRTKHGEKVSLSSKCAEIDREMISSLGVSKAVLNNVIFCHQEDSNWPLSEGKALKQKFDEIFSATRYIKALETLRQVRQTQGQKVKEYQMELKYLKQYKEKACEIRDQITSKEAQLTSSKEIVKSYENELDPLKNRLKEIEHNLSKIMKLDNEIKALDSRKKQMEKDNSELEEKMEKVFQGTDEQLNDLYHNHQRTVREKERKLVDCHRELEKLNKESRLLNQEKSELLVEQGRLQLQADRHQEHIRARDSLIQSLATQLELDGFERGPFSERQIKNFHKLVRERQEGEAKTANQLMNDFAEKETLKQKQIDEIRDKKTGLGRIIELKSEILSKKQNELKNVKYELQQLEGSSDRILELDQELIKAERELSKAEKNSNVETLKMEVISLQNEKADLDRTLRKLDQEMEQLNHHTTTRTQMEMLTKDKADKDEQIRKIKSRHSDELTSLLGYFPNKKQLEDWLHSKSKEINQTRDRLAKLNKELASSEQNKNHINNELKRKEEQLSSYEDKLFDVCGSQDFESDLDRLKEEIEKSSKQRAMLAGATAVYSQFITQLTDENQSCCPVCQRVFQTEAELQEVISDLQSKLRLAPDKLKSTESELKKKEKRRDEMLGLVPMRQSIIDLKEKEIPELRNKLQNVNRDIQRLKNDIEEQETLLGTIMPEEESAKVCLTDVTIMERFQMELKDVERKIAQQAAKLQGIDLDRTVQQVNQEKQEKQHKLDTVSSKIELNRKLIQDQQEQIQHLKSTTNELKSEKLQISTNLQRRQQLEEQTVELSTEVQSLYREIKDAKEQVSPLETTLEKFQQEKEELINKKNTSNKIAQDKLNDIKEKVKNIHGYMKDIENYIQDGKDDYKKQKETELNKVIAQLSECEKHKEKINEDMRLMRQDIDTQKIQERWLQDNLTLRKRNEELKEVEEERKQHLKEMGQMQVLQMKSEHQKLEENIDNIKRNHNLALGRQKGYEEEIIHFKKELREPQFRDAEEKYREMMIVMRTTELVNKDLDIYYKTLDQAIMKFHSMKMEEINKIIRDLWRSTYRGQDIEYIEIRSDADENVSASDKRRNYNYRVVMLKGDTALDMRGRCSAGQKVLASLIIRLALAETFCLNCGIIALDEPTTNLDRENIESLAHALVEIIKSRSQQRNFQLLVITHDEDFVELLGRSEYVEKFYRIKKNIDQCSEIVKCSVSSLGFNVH

Results are given in words; binding and its absence hold for the method and conditions named. In cells and extracts the contact can be indirect. Some results given as binding are weak or reduced against the parent protein; the word gives no strength. Where a sequence is shown, tags or fusion partners need not be part of it.

This assay deals with T1, TAP-Peli1 (Flag-tagged Peli1) (human) (UniProt Q96FA3).
T1 sequence: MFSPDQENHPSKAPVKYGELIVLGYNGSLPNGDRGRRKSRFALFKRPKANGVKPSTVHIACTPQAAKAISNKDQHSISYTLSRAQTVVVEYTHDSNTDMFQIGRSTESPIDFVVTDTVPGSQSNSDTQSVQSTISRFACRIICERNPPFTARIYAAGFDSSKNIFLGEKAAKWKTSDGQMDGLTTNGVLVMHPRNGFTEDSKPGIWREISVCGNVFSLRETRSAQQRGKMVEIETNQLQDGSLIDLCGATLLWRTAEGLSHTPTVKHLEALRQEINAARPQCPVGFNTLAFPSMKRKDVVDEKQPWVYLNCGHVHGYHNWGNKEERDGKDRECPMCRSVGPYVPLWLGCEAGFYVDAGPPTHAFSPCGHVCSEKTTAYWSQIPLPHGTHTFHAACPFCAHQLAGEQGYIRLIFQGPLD
Put plainly: pull-down; 293T cells transfected with TAP or TAP-Peli1, with or without IR (4 Gy, 30 min); lysed in NETN buffer; streptavidin-Sepharose beads 8 h at 4 °C; bound proteins immunoblotted. On the technique in general: A western blot detects proteins with antibodies after separation by electrophoresis.

With “NBS1 (endogenous, 293T) (from UniProt O60934 1-754)”, the binding result was “binds”. “ATR (endogenous, 293T) (from UniProt Q13535 1-2644)”: the binding result is on record as “no binding”. As for “RAD50 (endogenous, 293T) (from UniProt Q92878 1-1312)”, the binding entry is “binds”.
